Results on one sequence are retold here after paper PMC3182218.

Sequences of proteins named here, by UniProt entry; tags and fusion partners are left off. A change or cut given only in a name is not applied to a line headed by its entry.
UniProt Q96B42: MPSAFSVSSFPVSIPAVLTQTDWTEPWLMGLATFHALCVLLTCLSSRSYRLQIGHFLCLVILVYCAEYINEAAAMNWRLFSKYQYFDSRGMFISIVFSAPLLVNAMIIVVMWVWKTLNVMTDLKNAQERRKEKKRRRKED

For this data set, the target named is TMEM18 (UniProt Q96B42). Kind of data set: competition with a labelled probe. To be noted: against 400 nM biotin-(GCT)8, competitor 1 and 2.5 uM, shift not detectable at about 6-fold excess; EMSA: 10 mM Tris pH 7.4, 50 mM KCl, 1 mM DTT, 0.05% DDM, 30 min, RT; 4-20% TBE gel in 0.5x TBE; recombinant protein; residues 1-140; protein details: N-terminal Flag-His8. For orientation: In EMSA bound probe runs differently from free probe, usually more slowly.

Construct, isoform or probe ends are uncertain for at least one entry.

Regarding “GCTGCTGCTGCTGCTGCTGCTGCT (double strand) [unlabelled (GCT)8]”, the binding result was “binds”.
